{"source": "paper doi:10.1101/717769", "key": {"Flag-Merlin isoform 2": {"molecular_target": "Flag-Merlin isoform 2", "test": "co-IP"}, "[1]": {"molecular_target": "GST-fusion of the N-terminal half of Merlin containing the FERM domain", "test": "pull-down"}}, "note": "Results are given in words; binding and its absence hold for the method and conditions named. Binding seen in cells or lysates may run through a third protein. For some assays here: Binding calls can cover weak binding; strength is not graded here."}
{"binder": "TAT-SF1 (endogenous) (protein, UniProt O43719 1-755) MSGTNLDGNDEFDEQLRMQELYGDGKDGDTQTDAGGEPDSLGQQPTDTPYEWDLDKKAWFPKITEDFIATYQANYGFSNDGASSSTANVEDVHARTAEEPPQEKAPEPTDARKKGEKRKAESGWFHVEEDRNTNVYVSGLPPDITVDEFIQLMSKFGIIMRDPQTEEFKVKLYKDNQGNLKGDGLCCYLKRESVELALKLLDEDEIRGYKLHVEVAKFQLKGEYDASKKKKKCKDYKKKLSMQQKQLDWRPERRAGPSRMRHERVVIIKNMFHPMDFEDDPLVLNEIREDLRVECSKFGQIRKLLLFDRHPDGVASVSFRDPEEADYCIQTLDGRWFGGRQITAQAWDGTTDYQVEETSREREERLRGWEAFLNAPEANRGLRRSDSVSASERAGPSRARHFSEHPSTSKMNAQETATGMAFEEPIDEKKFEKTEDGGEFEEGASENNAKESSPEKEAEEGCPEKESEEGCPKRGFEGSCSQKESEEGNPVRGSEEDSPKKESKKKTLKNDCEENGLAKESEDDLNKESEEEVGPTKESEEDDSEKESDEDCSEKQSEDGSEREFEENGLEKDLDEEGSEKELHENVLDKELEENDSENSEFEDDGSEKVLDEEGSEREFDEDSDEKEEEEDTYEKVFDDESDEKEDEEYADEKGLEAADKKAEEGDADEKLFEESDDKEDEDADGKEVEDADEKLFEDDDSNEKLFDEEEDSSEKLFDDSDERGTLGGFGSVEEGPLSTGSSFILSSDDDDDDI", "values": [{"measurement": "binding", "setting": "Flag-Merlin isoform 2", "value": "binds"}, {"measurement": "binding", "setting": "[1]", "value": "no binding"}]}
